Data as given in PubChem BioAssay (NCATS).
Inconclusive means that the source gave no clear call. Such entries were picked first, then a sample of the others. Potencies of inconclusive entries are doubtful fits and often do not repeat. Activity calls are given as the source filed them. Calls follow the shape of the dose curve; as a rule, active = well fitted activation curve with a large enough effect in the signal ratio; inconclusive = small, poorly fitted or top-dose-only effect, or effect the other way, or a change in a side signal; inactive = flat fitted curve, though single readings scatter; the % refers to the signal ratio.
Potency is read from the fitted curve at half-maximal effect.

Assay: qHTS assay to identify small molecules that stimulate interleukin-8 (IL-8) secretion (AID 651758); as to activation: 0% is about no effect
Settings: HTRF ratio (665/615); activation: at 92.2 µM (top of the series)
Excerpt: National Center for Advancing Translational Sciences [NCATS]
NIH Chemical Genomics Center [NCGC]
National Institutes of Environmental Health Sciences [NIEHS]
National Toxicology Program [NTP]
Interleukin-8 is a 8 kDa chemokine produced by macrophages and other cells like epithelial cells that is often associated with inflammation. Interleukin-8 secretion is a key parameter in localized inflammation. There is a growing concern for some of environmental chemicals which may contribute the increasing the incidence of inflammation. A homogeneous IL-8 assay using Time Resolved fluorescence (HTRF) technology based on Time Resolved Fluorescent Resonance Energy Transfer (TR-FRET) allows to measure IL-8 secreted from the cells in a 1536-well plate format.
THP-1 cells were dispensed at 2000 cells/5ul/well in 1536-well white solid plates. After addition of 23 nl of compound, positive controls and DMSO only, the assay plates were incubated at 37 C for 16 hrs, followed by addition of 5 uL of mixture of cryptate labeled and XL665 labeled anti-IL-8 antibodies. After the assay plates were incubated at room temperature for 1-3 hrs, the plates were measured by an EnVision plate reader.
With `NCCNCCNCCN` the “activation” value was inactive: -4.65%.
In the case of `O=C(NO)c1ccccc1`, the “activation” value is reported as inactive: 1.18%.
With `[Cl][In]([Cl])[Cl]` the activation was inconclusive: -19.8%.
In the case of `O=C1C(c2[nH]c3ccccc3c2O)=Nc2ccccc21`, the Potency is reported as inconclusive: 75 µM [activator, single point].
With `C/C=C/C=C/C(=O)O` the “activation” value was inactive: -3.97%.
For `CC(C)(C)NC(=O)[C@@H]1C[C@@H]2CCCC[C@@H]2CN1C[C@@H](O)[C@H](Cc1ccccc1)NC(=O)[C@H](CC(N)=O)NC(=O)c1ccc2ccccc2n1`, the Potency was inconclusive: 75 µM [inhibitor, single point].
In the case of `O=C(Oc1ccccc1)c1ccccc1O`, the activation is reported as inconclusive: -3.08%.
For `CC(C)C(C)(C)C(C)(C)C(C)(C)S`, the “activation” value was inactive: -6.06%.
For `COc1ccc(CN(CCN(C)C)c2ccccn2)cc1`, the “activation” value was inactive: -14%.
In the case of `O=C(O)c1ccc(S(=O)(=O)N(Cl)Cl)cc1`, the activation is reported as inconclusive: 20.2%.
With `CCCCOC(=O)c1ccc(O)cc1` the activation was inconclusive: -12.5%.
In the case of `CCCN(CCC)S(=O)(=O)c1ccc(C(=O)O)cc1`, the activation is reported as inconclusive: 6.71%.
In the case of `COc1cc(CNC(=O)CCCC/C=C/C(C)C)ccc1O`, the activation is reported as inconclusive: 30.3%.
In the case of `O=C1c2cccc(O)c2C(=O)c2c(O)cccc21`, the Potency is reported as inconclusive: 75 µM [rising, single point].
For `CC(=O)NS(=O)(=O)c1ccc(N)cc1`, the Potency was inconclusive: 66.8 µM [inhibitor, single point].
For `COc1cc(C=O)ccc1O`, the activation was inconclusive: -11.6%.
In the case of `NNC(=O)c1ccncc1`, the “activation” value is reported as inactive: -12.9%.
For `CCCCC(CC)COC(=O)c1ccc(N(C)C)cc1` (stereo not given), the Potency was inconclusive: 75 µM [rising, single point].
For `C[C@]12CC[C@@H]3c4ccc(O)cc4CC[C@H]3[C@@H]1CC[C@@H]2O`, the Potency was inconclusive: 75 µM [activator, single point].
In the case of `CCCCC(CC)COC(=O)c1ccccc1C(=O)O` (stereo not given), the “activation” value is reported as inactive: 22.5%.
For `CN(C)CCC(c1ccccc1)c1ccccn1` (stereo not given), the activation was inconclusive: 4.29%.
With `CC(=O)Nc1ccc(C(=O)O)cc1` the activation was inconclusive: -11.2%.
With `CC(=O)c1ccc(S(=O)(=O)NC(=O)NC2CCCCC2)cc1` the activation was inconclusive: -6.24%.
In the case of `Cc1cc(CC(=O)O)n(C)c1C(=O)c1ccc(Cl)cc1`, the Potency is reported as inconclusive: 75 µM [rising, partial curve, poor fit].
In the case of `CN(C)CCC=C1c2ccccc2CCc2ccccc21`, the activation is reported as inconclusive: 4.12%.
In the case of `C/C=C/c1ccc(O)c(OC)c1`, the “activation” value is reported as inactive: -8.93%.
With `COc1ccc(CCC(=O)c2c(O)cc(O[C@@H]3O[C@H](CO)[C@@H](O)[C@H](O)[C@H]3O[C@@H]3O[C@@H](C)[C@H](O)[C@@H](O)[C@H]3O)cc2O)cc1O` the “activation” value was inactive: -2.64%.
In the case of `C=C1C[C@]23C[C@@]1(O)CC[C@H]2[C@@]12C=C[C@H](O)[C@@](C)(C(=O)O1)[C@H]2[C@@H]3C(=O)O`, the activation is reported as inconclusive: -14.3%.
In the case of `CC1CC(OC(=O)c2ccccc2O)CC(C)(C)C1` (stereo not given), the activation is reported as inconclusive: 25.9%.
With `C=C[C@H]1CN2CC[C@H]1C[C@@H]2[C@@H](O)c1ccnc2ccc(OC)cc12` the activation was inconclusive: 4.95%.
For `NCCNCCNCCNCCN`, the activation was inconclusive: -18.4%.
In the case of `O=C1c2c(O)cccc2Cc2cccc(O)c21`, the “activation” value is reported as inactive: -10.4%.
With `Oc1ccc(Cl)cc1Cc1cc(Cl)ccc1O` the activation was inconclusive: 16.9%.
With `O=C(O)Cc1cccc2ccccc12` the activation was inconclusive: 17.4%.
In the case of `COc1cc([C@H]2Oc3cc([C@H]4Oc5cc(O)cc(O)c5C(=O)[C@@H]4O)ccc3O[C@@H]2CO)ccc1O`, the Potency is reported as inconclusive: 66.8 µM [rising, single point].
For `CC/C=C\C/C=C\C/C=C\CCCCCCCC(=O)O`, the activation was inconclusive: 17.2%.
In the case of `CCCCC1C(=O)N(c2ccccc2)N(c2ccccc2)C1=O`, the “activation” value is reported as inactive: -8.89%.
In the case of `CC1=C(/C=C/C(C)=C/C=C/C(C)=C/CO)C(C)(C)CCC1`, the Potency is reported as active: 37.6 µM.
In the case of `Brc1ccccc1-c1ccccc1`, the “activation” value is reported as inactive: -0.607%.
With `COc1ccc2cc3[n+](cc2c1OC)CCc1cc2c(cc1-3)OCO2` the activation was inconclusive: -18.1%.
